Experimental data taken from PMC5359578.
Results are given in words; binding and its absence hold for the method and conditions named. In cells and extracts the contact can be indirect. Some binding calls cover weakened binding; strength is not graded here. Values belong to the molecule of their own block, whether it stands above or below them.

Chains of the proteins cited; added tags and fusions are not shown.
UniProt P16220: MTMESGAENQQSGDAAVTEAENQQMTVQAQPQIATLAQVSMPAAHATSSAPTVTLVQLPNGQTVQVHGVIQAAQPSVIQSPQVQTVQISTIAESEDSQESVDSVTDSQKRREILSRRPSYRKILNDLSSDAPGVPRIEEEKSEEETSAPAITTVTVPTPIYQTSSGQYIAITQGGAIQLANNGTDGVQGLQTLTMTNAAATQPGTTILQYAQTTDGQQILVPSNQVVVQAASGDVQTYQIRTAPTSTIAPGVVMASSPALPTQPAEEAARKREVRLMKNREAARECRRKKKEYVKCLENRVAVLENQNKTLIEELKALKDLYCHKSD
UniProt Q13950: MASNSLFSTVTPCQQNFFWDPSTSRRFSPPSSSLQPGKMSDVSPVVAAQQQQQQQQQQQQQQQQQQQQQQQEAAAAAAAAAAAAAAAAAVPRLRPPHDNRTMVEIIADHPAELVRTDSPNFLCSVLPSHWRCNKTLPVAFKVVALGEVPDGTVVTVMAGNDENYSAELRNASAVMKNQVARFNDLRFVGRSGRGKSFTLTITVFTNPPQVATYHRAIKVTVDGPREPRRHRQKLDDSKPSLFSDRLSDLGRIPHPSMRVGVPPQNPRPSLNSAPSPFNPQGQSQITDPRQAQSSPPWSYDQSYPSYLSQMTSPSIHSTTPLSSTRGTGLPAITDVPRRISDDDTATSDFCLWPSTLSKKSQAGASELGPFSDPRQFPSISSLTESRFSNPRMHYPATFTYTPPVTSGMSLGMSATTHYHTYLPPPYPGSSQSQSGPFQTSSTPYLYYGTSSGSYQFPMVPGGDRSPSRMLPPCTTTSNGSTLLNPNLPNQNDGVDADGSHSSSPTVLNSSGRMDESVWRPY

Columns and labels:
[1] = biological target: Yes-associated protein (YAP), endogenous (human (endogenous in Bel-7402 and Bel-7404)) (UniProt P46937); assay: co-IP; cells with or without overexpression of AMOT; endogenous YAP immuno-precipitated by anti-YAP; partners detected by Western blot
[2] = biological target: Yes-associated protein (YAP), endogenous (human (endogenous in Bel-7402 and Bel-7404)) (UniProt P46937); assay: co-IP; endogenous YAP immuno-precipitated by anti-YAP from Bel-7402 and Bel-7404 cells treated with DMSO or TPA (16-48 uM, 24 h); partners detected by Western blot
YAP-FLAG [3] = biological target: YAP-FLAG (UniProt P46937); assay: co-IP; Bel-7402 cells co-transfected with YAP-FLAG and a tagged transcription factor, treated with DMSO or TPA (16-32 uM); YAP-FLAG immuno-precipitated by anti-FLAG; partners detected by Western blot
YAP-FLAG [4] = biological target: YAP-FLAG (UniProt P46937); assay: co-IP; Bel-7402 cells co-transfected with YAP-FLAG and a tagged transcription factor, and with increasing concentrations of AMOT-HA; YAP-FLAG immuno-precipitated by anti-FLAG; partners detected by Western blot

Molecule: CREB, endogenous (from UniProt P16220 1-327)
binding [1]: binds
binding [2]: binds

Molecule: CREB-HA (from UniProt P16220 1-327)
binding (YAP-FLAG [3]): binds
binding (YAP-FLAG [4]): binds

Molecule: Runx2-HA (from UniProt Q13950 1-521)
binding (YAP-FLAG [3]): binds
binding (YAP-FLAG [4]): binds

The remaining lines, values ahead:

binding [1]: binds
binding [2]: binds
Molecule: Runx2, endogenous (from UniProt Q13950 1-521)

binding [1]: binds
binding [2]: binds
B1: p73, endogenous (protein, UniProt O15350 1-636)
chain: MAQSTATSPDGGTTFEHLWSSLEPDSTYFDLPQSSRGNNEVVGGTDSSMDVFHLEGMTTSVMAQFNLLSSTMDQMSSRAASASPYTPEHAASVPTHSPYAQPSSTFDTMSPAPVIPSNTDYPGPHHFEVTFQQSSTAKSATWTYSPLLKKLYCQIAKTCPIQIKVSTPPPPGTAIRAMPVYKKAEHVTDVVKRCPNHELGRDFNEGQSAPASHLIRVEGNNLSQYVDDPVTGRQSVVVPYEPPQVGTEFTTILYNFMCNSSCVGGMNRRPILIIITLEMRDGQVLGRRSFEGRICACPGRDRKADEDHYREQQALNESSAKNGAASKRAFKQSPPAVPALGAGVKKRRHGDEDTYYLQVRGRENFEILMKLKESLELMELVPQPLVDSYRQQQQLLQRPSHLQPPSYGPVLSPMNKVHGGMNKLPSVNQLVGQPPPHSSAATPNLGPVGPGMLNNHGHAVPANGEMSSSHSAQSMVSGSHCTPPPPYHADPSLVSFLTGLGCPNCIEYFTSQGLQSIYHLQNLTIEDLGALKIPEQYRMTIWRGLQDLKQGHDYSTAQQLLRSSNAATISIGGSGELQRQRVMEAVHFRVRHTITIPNRGGPGGGPDEWADFGFDLPDCKARKQPIKEEFTEAEIH
